The list shows only some results of the screen, not a fair sample: it gathers tests that were run many times, whatever their T/C, doses with no T/C, and many T/C values between a quarter and a half above the control. Further doses and runs are listed elsewhere. T/C: endpoint of the treated group in % of that of the vehicle group. Some entries give survivors of the animals treated and no T/C: the source holds a T/C of zero for them, seemingly a mark for toxic or unscored doses. Some survivor counts are full or nearly so, which does not show that the dose was tolerated: the source hardly ever lists a survival T/C far under the control, and the zero likely stands for such cases as well. Survivors were counted at the toxicity check, usually on the fifth day, unless a day is given; later deaths do not show. Schedules are NCI's codes, read here as Q, the interval in days (D) or hours (H), X, the number of doses. For survival time, this PubChem deposit counts one and a half times the control or more as active, and values a quarter to a half above the control carry no call in these data; other NCI protocols may use other cut-offs. Some T/C values are followed by the survivors on the day toxicity was checked, most often the fifth; without a count, all were alive then.
Tested on: BDF1 mice, B16 melanoma ip, median survival T/C
Experiment: NCI In Vivo Anticancer Drug Screen. Data for tumor model B16 Melanoma (intraperitoneal) in B6D2F1 (BDF1) mice
Conditions: T/C endpoint: median survival time, higher T/C = longer survival
Procedure, shortened: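 Transplantable tumor model; survival or tumor size measured; reported as T/C, treated over vehicle control.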

[1] = dose: 100.0 mg/kg/injection, schedule: Q01DX009 (ip), vehicle: saline
[2] = dose: 200.0 mg/kg/injection, schedule: Q01DX009 (ip), vehicle: saline
[3] = dose: 400.0 mg/kg/injection, schedule: Q01DX009 (ip), vehicle: saline

SMILES: COc1ccc(CC2C(=O)NC(C)C(=O)N(C)C3C(=O)N(C)C(Cc4ccc(O)c(c4)Oc4ccc(cc4)C3O)C(=O)NC(C)C(=O)NC(C)C(=O)N2C)cc1 (stereo not given) (tested in a mixture with another compound)
- T/C (dose: 0.12 mg/kg/injection, schedule: Q01DX009 (ip), vehicle: saline with Tween-80): 146 % of control
- T/C (dose: 0.25 mg/kg/injection, schedule: Q01DX009 (ip), vehicle: saline with Tween-80): 147 % of control
- T/C (dose: 0.5 mg/kg/injection, schedule: Q01DX009 (ip), vehicle: saline with Tween-80): 149 % of control
- survivor count (dose: 4.0 mg/kg/injection, schedule: Q01DX009 (ip), vehicle: saline with Tween-80): 7 of 10
- T/C (dose: 125.0 micrograms/kg/injection, schedule: Q01DX009 (ip), vehicle: saline): 132 % of control
- T/C (dose: 500.0 micrograms/kg/injection, schedule: Q01DX009 (ip), vehicle: saline): 139 % of control
- T/C (dose: 1000.0 micrograms/kg/injection, schedule: Q01DX009 (ip), vehicle: saline): 148 % of control
- T/C (dose: 4000.0 micrograms/kg/injection, schedule: Q01DX009 (ip), vehicle: saline): 129 % of control

SMILES: C[C@]12CCC(=O)C=C1CC[C@@H]1[C@@H]2[C@@H](O)C[C@@]2(C)[C@H]1CC[C@]2(O)C(=O)CO
- survivor count (dose: 320.0 mg/kg/injection, schedule: Q02DX009 (ip), vehicle: Klucel (hydroxypropylcellulose) (HPC)): 10 of 10
- survivor count (dose: 640.0 mg/kg/injection, schedule: Q02DX009 (ip), vehicle: Klucel (hydroxypropylcellulose) (HPC)): 9 of 10

SMILES: CCCN(CCC)c1ccc(/C=C/c2ccnc3ccccc23)cc1
- survivor count (dose: 43.0 mg/kg/injection, schedule: Q04DX003 (ip), vehicle: DMSO): 10 of 10
- survivor count (dose: 87.0 mg/kg/injection, schedule: Q04DX003 (ip), vehicle: DMSO): 10 of 10
- survivor count (dose: 175.0 mg/kg/injection, schedule: Q04DX003 (ip), vehicle: DMSO): 10 of 10

SMILES: COCCCN1CCN(c2ccccc2OC)CC1
- survivor count [1]: 3 of 10

SMILES: Oc1cccc2c1[O][Sb][O]2
- survivor count (dose: 12.5 mg/kg/injection, schedule: Q01DX009 (ip), vehicle: saline with Tween-80): 10 of 10
- survivor count (dose: 25.0 mg/kg/injection, schedule: Q01DX009 (ip), vehicle: saline with Tween-80): 10 of 10
- survivor count (dose: 50.0 mg/kg/injection, schedule: Q01DX009 (ip), vehicle: saline with Tween-80): 9 of 9
- survivor count (dose: 100.0 mg/kg/injection, schedule: Q01DX009 (ip), vehicle: saline with Tween-80): 1 of 10

SMILES: Nc1ncnc2c1ncn2C1OC(COP(=O)(O)O)C(O)C1O (stereo not given)
- T/C (dose: 25.0 mg/kg/injection, schedule: Q01DX009 (ip), vehicle: saline): 131 % of control
- T/C [2]: 125 % of control [9 of 10 alive]
- T/C [3]: 130 % of control

SMILES: N#CC(Br)(Br)C(N)=O
- survivor count (dose: 2.5 mg/kg/injection, schedule: Q01DX009 (ip), vehicle: saline): 10 of 10
- survivor count (dose: 5.0 mg/kg/injection, schedule: Q01DX009 (ip), vehicle: saline): 10 of 10
- survivor count (dose: 10.0 mg/kg/injection, schedule: Q01DX009 (ip), vehicle: saline): 9 of 10
- survivor count (dose: 20.0 mg/kg/injection, schedule: Q01DX009 (ip), vehicle: saline): 0 of 10

SMILES: CC(=O)O[C@@H]1CO[C@H]2O[C@H]3[C@@H](C(C=O)=C[C@H](O)[C@@H]4C5=C(C(C)C)CC[C@]5(C)CC[C@@]34C)[C@@]2(O)C1=O
- survivor count (dose: 1.5 mg/kg/injection, schedule: Q01DX009 (ip), vehicle: Klucel (hydroxypropylcellulose) (HPC)): 10 of 10
- survivor count (dose: 3.0 mg/kg/injection, schedule: Q01DX009 (ip), vehicle: Klucel (hydroxypropylcellulose) (HPC)): 9 of 10
- survivor count (dose: 6.0 mg/kg/injection, schedule: Q01DX009 (ip), vehicle: Klucel (hydroxypropylcellulose) (HPC)): 3 of 10
- survivor count (dose: 12.0 mg/kg/injection, schedule: Q01DX009 (ip), vehicle: Klucel (hydroxypropylcellulose) (HPC)): 4 of 10
- survivor count (dose: 24.0 mg/kg/injection, schedule: Q01DX009 (ip), vehicle: Klucel (hydroxypropylcellulose) (HPC)): 0 of 10
- survivor count (dose: 25.0 mg/kg/injection, schedule: Q01DX009 (ip), vehicle: Klucel (hydroxypropylcellulose) (HPC)): 2 of 10
- survivor count (dose: 50.0 mg/kg/injection, schedule: Q01DX009 (ip), vehicle: Klucel (hydroxypropylcellulose) (HPC)): 0 of 10

SMILES: COc1cc(/C=C2/c3cc(Cl)ccc3-c3c(Cl)cc(Cl)cc32)cc(OC)c1OC
- survivor count (dose: 1.6 mg/kg/injection, schedule: Q01DX009 (ip), vehicle: saline with Tween-80): 6 of 6
- survivor count (dose: 50.0 mg/kg/injection, schedule: Q01DX009 (ip), vehicle: saline): 6 of 6
- survivor count [1]: 6 of 6
- survivor count [2]: 6 of 6
- survivor count [3]: 6 of 6

SMILES: N#CC1CS(=O)(=O)C1
- survivor count (dose: 200.0 mg/kg/injection, schedule: Q04DX003 (ip), vehicle: saline with Tween-80): 4 of 10
- survivor count (dose: 400.0 mg/kg/injection, schedule: Q04DX003 (ip), vehicle: saline with Tween-80): 5 of 10

SMILES: Nc1ccccc1O
- survivor count [3]: 5 of 10
